Where cells or extracts were used, other partners may take part.
Biological target: ICAM-1 (on cells) (Homo sapiens) (UniProt P05362)
Assay: binding assay
Settings: protein on the cell surface
[1] = 2'-F pyrimidines (all C and U), qPCR cell binding, HNEpC higher than HEK293

Protein sequences, listed by entry. Tags and fused reporters are not part of them. Residues count along the entry.
UniProt P05362, 28-532: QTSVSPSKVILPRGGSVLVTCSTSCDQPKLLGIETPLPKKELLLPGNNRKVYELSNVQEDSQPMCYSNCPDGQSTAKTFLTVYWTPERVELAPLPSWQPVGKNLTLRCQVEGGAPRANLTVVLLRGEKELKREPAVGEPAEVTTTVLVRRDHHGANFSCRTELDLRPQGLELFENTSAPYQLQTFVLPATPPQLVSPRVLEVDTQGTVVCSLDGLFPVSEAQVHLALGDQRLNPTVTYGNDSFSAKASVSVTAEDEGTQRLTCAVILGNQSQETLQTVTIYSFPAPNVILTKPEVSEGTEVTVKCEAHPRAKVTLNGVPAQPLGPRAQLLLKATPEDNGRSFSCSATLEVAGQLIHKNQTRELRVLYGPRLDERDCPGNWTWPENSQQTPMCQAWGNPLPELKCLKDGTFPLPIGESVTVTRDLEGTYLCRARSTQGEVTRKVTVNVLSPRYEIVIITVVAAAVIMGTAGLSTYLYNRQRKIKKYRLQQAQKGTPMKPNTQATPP

“AGGTCCTCAAGCAGCTTTGTCCTGCTGCTGAGGAAGG [Nas.D-8.1]”: binds (HNEpC cells, peaks 0.5 h and 2 h, higher than parent, RH-30 worse, label: FAM, single-stranded DNA, variant of Nas.D-8).
“GGGTGCATCGTTTACGCGCAACATAAAAATTTAAAGTGCTCAGTTGTCAATCTATGACTGCTGCTGAGGAAGGATATGAG [Nas.D-4]”: binds (HNEpC cells, 500 nM, RH-30 below 500 RFU, label: FAM, single-stranded DNA, variant of Nas.R-4).
“GGGTGCATCGTTTACGCGCAACATAAAAATTTAAAGTGCTCAGTTGTCAATCTATGACTGCTGCTGAGGAAGGATATGAGAAACAAACAAACGTATGGCGGTCTCCAACAGG / CCTGTTGGAGACCGCCATAC”: binds (2'-F pyrimidines in RNA strand, fluorescence microscopy on HNEpC, no fluorescence on HEK293, label: 5' 6-FAM on DNA antisense strand, variant of Nas.R-4).
“GGGTGCATCGTTTACGCGTAAAAATTAAAGAGATTAAGGTCCTTAAGCAGTTTTGTCCTGCTGCTGAGGAAGGATATGAG [Nas.D-8]”: binds (HNEpC cells, lower than truncated 8.1, RH-30 worse, label: FAM, single-stranded DNA, variant of Nas.R-8).
“GGGTGCATCGTTTACGCGTAAATGGTCCGCTATTAAAAGAAAAGAATGAAGTCTCAGCTGCTGCTGAGGAAGGATATGAG [Nas.D-5]”: binds (HNEpC cells, 500 nM, RH-30 hardly detectable, label: FAM, single-stranded DNA, variant of Nas.R-5).
“GGGUGCAUCGUUUACGCGUAAAUAAGUAGAUAAAGUGGCAGUUUGUUUUCCUUGGAACUGCUGCUGAGGAAGGAUAUGAG [Nas.R-7]”: binds [1].
“GGGUGCAUCGUUUACGCGUAAAUGGUCCGCUAUUAAAAGAAAAGAAUGAAGUCUCAGCUGCUGCUGAGGAAGGAUAUGAG [Nas.R-5]”: binds [1].

— patent publication US20230287433, “APTAMERS FOR PERSONAL HEALTH CARE APPLICATIONS” (The Procter & Gamble Company, published 2023)
